Results from the supplement of paper PMC10849652.
Some of the results follow.

Protein sequences, listed by entry. Tags and fused reporters are not part of them. Lines headed by an entry give the natural chain unless they say otherwise; changes in a name come on top.
UniProt Q9NPE3: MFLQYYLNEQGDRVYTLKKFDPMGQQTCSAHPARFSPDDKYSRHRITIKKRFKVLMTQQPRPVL
UniProt Q9UHY1: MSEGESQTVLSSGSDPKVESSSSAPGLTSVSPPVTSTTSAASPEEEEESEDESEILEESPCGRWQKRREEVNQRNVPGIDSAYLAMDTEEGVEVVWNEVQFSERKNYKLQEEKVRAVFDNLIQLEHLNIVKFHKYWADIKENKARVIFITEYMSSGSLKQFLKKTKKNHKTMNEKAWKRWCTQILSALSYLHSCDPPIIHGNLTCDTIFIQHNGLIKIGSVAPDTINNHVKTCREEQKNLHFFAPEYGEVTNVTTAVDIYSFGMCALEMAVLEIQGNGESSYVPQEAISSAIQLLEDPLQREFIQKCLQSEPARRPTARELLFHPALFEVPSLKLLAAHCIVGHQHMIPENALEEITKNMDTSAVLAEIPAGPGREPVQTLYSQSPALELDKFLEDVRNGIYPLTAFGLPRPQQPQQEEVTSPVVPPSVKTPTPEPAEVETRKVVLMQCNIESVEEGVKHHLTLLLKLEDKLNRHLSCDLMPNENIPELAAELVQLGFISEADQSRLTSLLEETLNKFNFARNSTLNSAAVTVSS
UniProt Q14978: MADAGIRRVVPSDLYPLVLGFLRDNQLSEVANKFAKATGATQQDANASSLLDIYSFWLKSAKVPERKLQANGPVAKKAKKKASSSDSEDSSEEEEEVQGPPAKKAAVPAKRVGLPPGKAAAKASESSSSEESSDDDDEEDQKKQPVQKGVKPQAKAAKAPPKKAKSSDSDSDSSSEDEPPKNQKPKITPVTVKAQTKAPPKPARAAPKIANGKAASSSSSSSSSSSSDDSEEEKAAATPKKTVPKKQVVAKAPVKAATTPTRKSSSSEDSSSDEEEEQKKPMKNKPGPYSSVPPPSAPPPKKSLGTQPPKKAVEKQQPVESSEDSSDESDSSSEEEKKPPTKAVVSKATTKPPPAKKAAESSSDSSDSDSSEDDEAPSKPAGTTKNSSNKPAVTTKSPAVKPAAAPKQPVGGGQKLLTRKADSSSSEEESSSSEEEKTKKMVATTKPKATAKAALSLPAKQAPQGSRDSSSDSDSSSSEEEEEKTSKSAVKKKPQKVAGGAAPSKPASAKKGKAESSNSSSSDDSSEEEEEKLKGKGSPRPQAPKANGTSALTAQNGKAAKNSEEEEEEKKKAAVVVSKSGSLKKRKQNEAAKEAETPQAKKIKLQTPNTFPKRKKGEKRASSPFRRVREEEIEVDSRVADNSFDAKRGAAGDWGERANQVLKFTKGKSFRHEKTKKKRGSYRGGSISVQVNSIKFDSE
UniProt P49116: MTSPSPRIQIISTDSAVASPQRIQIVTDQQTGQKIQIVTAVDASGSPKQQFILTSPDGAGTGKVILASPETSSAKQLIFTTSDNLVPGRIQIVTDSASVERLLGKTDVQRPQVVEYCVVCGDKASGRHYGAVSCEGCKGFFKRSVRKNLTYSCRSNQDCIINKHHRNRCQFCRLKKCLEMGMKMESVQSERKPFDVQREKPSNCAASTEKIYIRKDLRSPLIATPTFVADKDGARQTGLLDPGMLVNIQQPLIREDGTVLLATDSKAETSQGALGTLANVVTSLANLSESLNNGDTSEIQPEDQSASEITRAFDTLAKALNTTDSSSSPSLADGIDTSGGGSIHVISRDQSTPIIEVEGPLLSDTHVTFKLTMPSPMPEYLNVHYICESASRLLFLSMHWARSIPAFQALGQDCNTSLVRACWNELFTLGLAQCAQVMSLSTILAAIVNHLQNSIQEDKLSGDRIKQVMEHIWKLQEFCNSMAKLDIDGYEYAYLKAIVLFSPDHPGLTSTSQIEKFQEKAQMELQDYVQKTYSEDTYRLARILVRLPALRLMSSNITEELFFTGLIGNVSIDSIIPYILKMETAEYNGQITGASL
UniProt P30419: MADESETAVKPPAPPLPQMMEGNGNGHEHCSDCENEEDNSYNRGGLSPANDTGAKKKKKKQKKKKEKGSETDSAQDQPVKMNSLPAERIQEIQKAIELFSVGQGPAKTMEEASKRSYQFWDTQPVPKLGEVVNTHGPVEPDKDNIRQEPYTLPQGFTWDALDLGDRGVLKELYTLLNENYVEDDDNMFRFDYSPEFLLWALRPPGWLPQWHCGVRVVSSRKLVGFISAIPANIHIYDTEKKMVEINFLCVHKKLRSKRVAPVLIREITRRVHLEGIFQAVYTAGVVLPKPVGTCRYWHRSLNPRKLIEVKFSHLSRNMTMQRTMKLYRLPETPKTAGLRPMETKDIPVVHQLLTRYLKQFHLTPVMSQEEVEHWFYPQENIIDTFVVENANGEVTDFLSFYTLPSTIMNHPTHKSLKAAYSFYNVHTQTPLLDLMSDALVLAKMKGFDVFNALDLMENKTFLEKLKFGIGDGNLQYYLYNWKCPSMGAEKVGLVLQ
UniProt Q96D46: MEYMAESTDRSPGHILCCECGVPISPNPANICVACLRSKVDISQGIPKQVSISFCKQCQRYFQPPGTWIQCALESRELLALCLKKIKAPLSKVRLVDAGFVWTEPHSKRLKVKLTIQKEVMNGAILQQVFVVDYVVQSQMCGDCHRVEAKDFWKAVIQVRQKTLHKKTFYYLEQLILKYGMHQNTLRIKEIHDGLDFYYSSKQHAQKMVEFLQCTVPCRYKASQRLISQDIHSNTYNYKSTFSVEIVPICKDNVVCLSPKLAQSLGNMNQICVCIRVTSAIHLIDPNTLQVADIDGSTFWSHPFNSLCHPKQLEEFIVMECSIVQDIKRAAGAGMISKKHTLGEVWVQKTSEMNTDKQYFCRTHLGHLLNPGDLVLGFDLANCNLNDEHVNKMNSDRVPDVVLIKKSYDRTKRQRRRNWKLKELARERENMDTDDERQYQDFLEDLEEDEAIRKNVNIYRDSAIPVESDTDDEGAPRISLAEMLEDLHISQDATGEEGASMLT
UniProt Q92636: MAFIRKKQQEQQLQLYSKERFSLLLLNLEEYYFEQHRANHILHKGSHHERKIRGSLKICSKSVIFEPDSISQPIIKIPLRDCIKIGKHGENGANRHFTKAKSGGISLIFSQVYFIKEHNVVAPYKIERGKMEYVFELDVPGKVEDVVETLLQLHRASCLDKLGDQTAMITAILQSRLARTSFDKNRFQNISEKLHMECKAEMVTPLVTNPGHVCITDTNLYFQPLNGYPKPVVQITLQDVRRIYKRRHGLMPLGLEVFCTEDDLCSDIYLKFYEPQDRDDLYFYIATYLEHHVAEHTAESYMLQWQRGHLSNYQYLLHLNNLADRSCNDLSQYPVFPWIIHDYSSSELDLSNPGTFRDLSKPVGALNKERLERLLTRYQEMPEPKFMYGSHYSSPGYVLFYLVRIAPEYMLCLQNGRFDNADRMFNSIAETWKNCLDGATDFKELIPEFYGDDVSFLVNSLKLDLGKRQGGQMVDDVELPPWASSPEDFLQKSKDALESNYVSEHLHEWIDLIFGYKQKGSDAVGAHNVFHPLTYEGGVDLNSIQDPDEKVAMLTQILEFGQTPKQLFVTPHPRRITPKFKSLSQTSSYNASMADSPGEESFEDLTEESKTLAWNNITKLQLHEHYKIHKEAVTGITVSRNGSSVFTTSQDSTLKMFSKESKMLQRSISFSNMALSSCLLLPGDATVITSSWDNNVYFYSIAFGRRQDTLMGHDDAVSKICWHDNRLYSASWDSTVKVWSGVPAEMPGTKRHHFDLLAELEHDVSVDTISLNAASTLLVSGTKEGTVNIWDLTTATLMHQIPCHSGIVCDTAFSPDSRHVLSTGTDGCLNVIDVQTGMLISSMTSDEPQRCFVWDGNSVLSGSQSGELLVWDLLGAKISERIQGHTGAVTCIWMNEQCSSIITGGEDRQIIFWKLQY
UniProt Q9Y3C1: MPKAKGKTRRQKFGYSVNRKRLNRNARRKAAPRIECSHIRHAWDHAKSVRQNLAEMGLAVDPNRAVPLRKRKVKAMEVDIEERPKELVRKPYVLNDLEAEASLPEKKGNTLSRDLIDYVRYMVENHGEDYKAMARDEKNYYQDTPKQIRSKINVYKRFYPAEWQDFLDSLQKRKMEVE
UniProt Q96MF7: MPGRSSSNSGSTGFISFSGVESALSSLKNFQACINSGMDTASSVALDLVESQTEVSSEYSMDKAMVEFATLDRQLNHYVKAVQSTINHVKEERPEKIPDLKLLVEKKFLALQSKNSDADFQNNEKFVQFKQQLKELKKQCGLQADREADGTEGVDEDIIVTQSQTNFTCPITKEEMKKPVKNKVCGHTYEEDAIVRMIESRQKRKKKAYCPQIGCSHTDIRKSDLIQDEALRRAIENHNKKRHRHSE
UniProt Q9NSY0: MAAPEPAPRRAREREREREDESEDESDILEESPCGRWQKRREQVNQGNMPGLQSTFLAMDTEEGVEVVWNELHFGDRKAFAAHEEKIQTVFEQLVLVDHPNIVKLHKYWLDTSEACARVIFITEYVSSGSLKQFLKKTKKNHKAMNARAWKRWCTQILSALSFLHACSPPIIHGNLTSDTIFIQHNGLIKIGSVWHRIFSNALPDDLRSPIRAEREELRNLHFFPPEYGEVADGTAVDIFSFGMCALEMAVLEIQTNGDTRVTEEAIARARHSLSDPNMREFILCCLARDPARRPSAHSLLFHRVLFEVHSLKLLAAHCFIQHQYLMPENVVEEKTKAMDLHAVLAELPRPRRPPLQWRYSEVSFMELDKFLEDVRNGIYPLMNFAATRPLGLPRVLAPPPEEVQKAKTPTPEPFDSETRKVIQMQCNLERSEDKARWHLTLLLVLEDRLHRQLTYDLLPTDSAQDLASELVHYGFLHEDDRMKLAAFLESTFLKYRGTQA
UniProt Q9H8H0: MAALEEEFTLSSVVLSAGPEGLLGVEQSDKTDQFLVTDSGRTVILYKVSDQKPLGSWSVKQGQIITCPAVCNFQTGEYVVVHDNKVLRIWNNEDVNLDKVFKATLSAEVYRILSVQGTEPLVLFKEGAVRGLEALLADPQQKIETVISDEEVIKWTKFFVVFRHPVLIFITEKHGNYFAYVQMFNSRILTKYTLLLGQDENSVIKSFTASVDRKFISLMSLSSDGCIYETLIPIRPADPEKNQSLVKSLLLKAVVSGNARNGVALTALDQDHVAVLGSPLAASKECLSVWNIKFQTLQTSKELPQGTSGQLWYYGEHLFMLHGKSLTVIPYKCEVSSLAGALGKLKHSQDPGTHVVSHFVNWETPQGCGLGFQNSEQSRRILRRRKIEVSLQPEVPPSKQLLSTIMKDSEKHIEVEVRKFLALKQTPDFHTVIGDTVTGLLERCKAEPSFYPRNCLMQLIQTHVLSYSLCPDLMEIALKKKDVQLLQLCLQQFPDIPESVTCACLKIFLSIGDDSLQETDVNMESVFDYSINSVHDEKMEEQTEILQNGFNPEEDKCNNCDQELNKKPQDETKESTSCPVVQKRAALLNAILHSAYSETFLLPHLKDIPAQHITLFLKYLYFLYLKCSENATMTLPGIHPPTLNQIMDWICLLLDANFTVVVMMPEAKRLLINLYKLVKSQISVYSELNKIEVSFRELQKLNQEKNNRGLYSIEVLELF
UniProt Q9Y6R0: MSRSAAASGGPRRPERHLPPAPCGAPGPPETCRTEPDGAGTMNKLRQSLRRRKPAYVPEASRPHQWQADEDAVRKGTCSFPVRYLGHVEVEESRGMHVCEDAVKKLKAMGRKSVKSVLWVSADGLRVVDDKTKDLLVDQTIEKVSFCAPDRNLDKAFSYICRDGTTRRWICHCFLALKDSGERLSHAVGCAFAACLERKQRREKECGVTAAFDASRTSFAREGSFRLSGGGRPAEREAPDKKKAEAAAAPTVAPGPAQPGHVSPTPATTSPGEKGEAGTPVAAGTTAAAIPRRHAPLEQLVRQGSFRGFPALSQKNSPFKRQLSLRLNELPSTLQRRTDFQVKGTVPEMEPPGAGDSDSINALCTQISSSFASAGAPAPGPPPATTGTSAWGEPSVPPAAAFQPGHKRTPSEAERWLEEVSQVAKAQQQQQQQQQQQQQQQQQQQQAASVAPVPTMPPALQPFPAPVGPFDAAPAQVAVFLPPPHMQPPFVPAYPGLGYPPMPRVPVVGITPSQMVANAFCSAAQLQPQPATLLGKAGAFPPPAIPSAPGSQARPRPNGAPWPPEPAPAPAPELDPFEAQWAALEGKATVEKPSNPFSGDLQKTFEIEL
UniProt Q9UNZ2: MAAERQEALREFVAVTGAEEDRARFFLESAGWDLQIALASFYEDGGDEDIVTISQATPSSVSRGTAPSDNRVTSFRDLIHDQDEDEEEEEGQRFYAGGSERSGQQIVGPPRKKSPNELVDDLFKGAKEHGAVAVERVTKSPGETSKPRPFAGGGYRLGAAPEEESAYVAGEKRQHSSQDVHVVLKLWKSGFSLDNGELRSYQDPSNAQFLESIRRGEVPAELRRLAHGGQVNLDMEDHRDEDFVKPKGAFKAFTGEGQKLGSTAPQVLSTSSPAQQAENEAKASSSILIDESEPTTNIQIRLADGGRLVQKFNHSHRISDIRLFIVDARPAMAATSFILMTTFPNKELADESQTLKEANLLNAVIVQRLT

What was measured:
Test in all cases: log2 fold change, soluble protein after heating vs DMSO (PISA); higher = thermal stabilisation; K562 lysate, 10 uM; active = over 0.2 and 3.5 SD of the protein, either way, in both replicates (recomputed)
[1] = compound: C1=CC=C(C=C1)[C@H](COC2=CC3=C(C=C2)NC(=O)N3)NC(=O)C4=CC=CN(C4=O)CC5=CC(=C(C=C5)F)F
How it was run: (§1)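 A 30 min treatment with 10 μM compound was applied to crude K562 extract at 1 mg/mL protein in PBS pH 7.4 with 1 mM MgCl2. Heating for 3 min spanned 48°C-58°C, after which aliquots were pooled, adjusted to 0.5% NP-40 at 4°C and spun at 21,000xg for 90 min. TMTpro 16plex LC-MS/MS of the supernatant, with channel sums equalised, gave values recorded as log-two fold change in thermal stability against solvent controls, from duplicates.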

[2] = compound: CC1=C(SC2=C1C(=N[C@H](C3=NN=C(N32)C)CC(=O)N)C4=CC=C(C=C4)Cl)C
How it was run: as §1

[3] = compound: CC1=C2C(=CC=C1)N=C(N(C2=O)C3=CC=CC=C3C)CN4C=NC5=C(N=CN=C54)N
How it was run: as §1

[4] = compound: Cc1sc2c(c1C)C(c1ccc(Cl)cc1)=N[C@@H](CC(=O)OC(C)(C)C)c1nnc(C)n1-2
How it was run: as §1

[5] = compound: c1ccc([C@@H]2C[C@H]2NC2CCNCC2)cc1
How it was run: as §1

Measured: log2 fold change

NOP56 (UniProt O00567)
inactive: [1] 0.005 | [2] 0.007 | [3] -0.014 | [4] 0.081 | [5] 0.062

NPTN (UniProt Q9Y639)
inactive: [1] 0.026 | [2] -0.045 | [3] -0.038 | [4] -0.018 | [5] -0.006

NOP10 (UniProt Q9NPE3)
inactive: [1] 0.018 | [2] 0.189 | [3] -0.014 | [4] 0.004 | [5] -0.031

NUBP2 (UniProt Q9Y5Y2)
inactive: [1] -0.021 | [2] -0.007 | [3] 0.048 | [4] 0.027 | [5] 0.146

NRBP1 (UniProt Q9UHY1)
inactive: [1] 0.025 | [2] 0.022 | [3] 0.001 | [4] -0.006 | [5] -0.011

NOA1 (UniProt Q8NC60)
inactive: [1] -0.087 | [2] 0.099 | [3] 0.023 | [4] -0.014 | [5] -0.07

NOLC1 isoform 2 (UniProt Q14978)
inactive: [1] -0.01 | [2] 0 | [3] -0.014 | [4] 0.016 | [5] -0.033

NRDC isoform 2 (UniProt O43847)
inactive: [1] 0.002 | [2] 0.005 | [3] 0.001 | [4] 0.001 | [5] 0.035

NSMCE3 (UniProt Q96MG7)
inactive: [1] 0.019 | [2] 0.053 | [3] 0.002 | [4] 0.017 | [5] 0.031

2 successive records already listed, quoted:
NUBP2 (UniProt Q9Y5Y2)
inactive: [1] -0.021 | [2] -0.007 | [3] 0.048 | [4] 0.027 | [5] 0.146

NRBP1 (UniProt Q9UHY1)
inactive: [1] 0.025 | [2] 0.022 | [3] 0.001 | [4] -0.006 | [5] -0.011

Additional results

NUDT19 (UniProt A8MXV4)
inactive: [1] -0.003 | [2] 0.014 | [3] 0.006 | [4] 0.001 | [5] 0.022

NSDHL (UniProt Q15738)
inactive: [1] -0.085 | [2] -0.041 | [3] -0.005 | [4] -0.034 | [5] -0.025

NSUN2 (UniProt Q08J23)
inactive: [1] -0.016 | [2] 0.011 | [3] -0.009 | [4] 0.021 | [5] 0.019

NR2C2 isoform 2 (UniProt P49116)
inactive: [1] -0.078 | [2] -0.08 | [3] -0.04 | [4] 0.243 | [5] 0.047

NMT1 (UniProt P30419)
inactive: [1] 0.004 | [2] 0.002 | [3] -0.002 | [4] 0.011 | [5] 0.004

NSF (UniProt P46459)
inactive: [1] -0.032 | [2] 0.005 | [3] 0.005 | [4] 0.016 | [5] 0.027

NMD3 (UniProt Q96D46)
inactive: [1] 0.003 | [2] -0.012 | [3] -0.003 | [4] 0.013 | [5] -0.028

NSMAF (UniProt Q92636)
inactive: [1] 0.048 | [2] -0.025 | [3] -0.001 | [4] -0.033 | [5] 0.012

NUDT9 (UniProt Q9BW91)
inactive: [1] 0.041 | [2] -0.007 | [3] -0.02 | [4] -0.001 | [5] -0.023

NOP16 (UniProt Q9Y3C1)
inactive: [1] 0.009 | [2] -0.035 | [3] 0 | [4] -0.039 | [5] 0.013

NSMCE2 (UniProt Q96MF7)
inactive: [1] 0.006 | [2] -0.009 | [3] 0.061 | [4] 0.101 | [5] -0.001

NRBP2 (UniProt Q9NSY0)
inactive: [1] -0.024 | [2] -0.009 | [3] 0.133 | [4] -0.057 | [5] 0.046

NOL11 (UniProt Q9H8H0)
inactive: [1] 0.042 | [2] 0.001 | [3] 0.027 | [4] 0.007 | [5] -0.029

NUMBL (UniProt Q9Y6R0)
inactive: [1] -0.047 | [2] 0.038 | [3] 0.039 | [4] -0.096 | [5] -0.012

NSFL1C isoform 5 (UniProt Q9UNZ2)
inactive: [1] 0.024 | [2] -0.027 | [3] -0.012 | [4] 0.02 | [5] 0.016
